{"sequences": {"note": "Protein sequences, listed by entry. Tags and fused reporters are not part of them.", "UniProt Q7Z333": "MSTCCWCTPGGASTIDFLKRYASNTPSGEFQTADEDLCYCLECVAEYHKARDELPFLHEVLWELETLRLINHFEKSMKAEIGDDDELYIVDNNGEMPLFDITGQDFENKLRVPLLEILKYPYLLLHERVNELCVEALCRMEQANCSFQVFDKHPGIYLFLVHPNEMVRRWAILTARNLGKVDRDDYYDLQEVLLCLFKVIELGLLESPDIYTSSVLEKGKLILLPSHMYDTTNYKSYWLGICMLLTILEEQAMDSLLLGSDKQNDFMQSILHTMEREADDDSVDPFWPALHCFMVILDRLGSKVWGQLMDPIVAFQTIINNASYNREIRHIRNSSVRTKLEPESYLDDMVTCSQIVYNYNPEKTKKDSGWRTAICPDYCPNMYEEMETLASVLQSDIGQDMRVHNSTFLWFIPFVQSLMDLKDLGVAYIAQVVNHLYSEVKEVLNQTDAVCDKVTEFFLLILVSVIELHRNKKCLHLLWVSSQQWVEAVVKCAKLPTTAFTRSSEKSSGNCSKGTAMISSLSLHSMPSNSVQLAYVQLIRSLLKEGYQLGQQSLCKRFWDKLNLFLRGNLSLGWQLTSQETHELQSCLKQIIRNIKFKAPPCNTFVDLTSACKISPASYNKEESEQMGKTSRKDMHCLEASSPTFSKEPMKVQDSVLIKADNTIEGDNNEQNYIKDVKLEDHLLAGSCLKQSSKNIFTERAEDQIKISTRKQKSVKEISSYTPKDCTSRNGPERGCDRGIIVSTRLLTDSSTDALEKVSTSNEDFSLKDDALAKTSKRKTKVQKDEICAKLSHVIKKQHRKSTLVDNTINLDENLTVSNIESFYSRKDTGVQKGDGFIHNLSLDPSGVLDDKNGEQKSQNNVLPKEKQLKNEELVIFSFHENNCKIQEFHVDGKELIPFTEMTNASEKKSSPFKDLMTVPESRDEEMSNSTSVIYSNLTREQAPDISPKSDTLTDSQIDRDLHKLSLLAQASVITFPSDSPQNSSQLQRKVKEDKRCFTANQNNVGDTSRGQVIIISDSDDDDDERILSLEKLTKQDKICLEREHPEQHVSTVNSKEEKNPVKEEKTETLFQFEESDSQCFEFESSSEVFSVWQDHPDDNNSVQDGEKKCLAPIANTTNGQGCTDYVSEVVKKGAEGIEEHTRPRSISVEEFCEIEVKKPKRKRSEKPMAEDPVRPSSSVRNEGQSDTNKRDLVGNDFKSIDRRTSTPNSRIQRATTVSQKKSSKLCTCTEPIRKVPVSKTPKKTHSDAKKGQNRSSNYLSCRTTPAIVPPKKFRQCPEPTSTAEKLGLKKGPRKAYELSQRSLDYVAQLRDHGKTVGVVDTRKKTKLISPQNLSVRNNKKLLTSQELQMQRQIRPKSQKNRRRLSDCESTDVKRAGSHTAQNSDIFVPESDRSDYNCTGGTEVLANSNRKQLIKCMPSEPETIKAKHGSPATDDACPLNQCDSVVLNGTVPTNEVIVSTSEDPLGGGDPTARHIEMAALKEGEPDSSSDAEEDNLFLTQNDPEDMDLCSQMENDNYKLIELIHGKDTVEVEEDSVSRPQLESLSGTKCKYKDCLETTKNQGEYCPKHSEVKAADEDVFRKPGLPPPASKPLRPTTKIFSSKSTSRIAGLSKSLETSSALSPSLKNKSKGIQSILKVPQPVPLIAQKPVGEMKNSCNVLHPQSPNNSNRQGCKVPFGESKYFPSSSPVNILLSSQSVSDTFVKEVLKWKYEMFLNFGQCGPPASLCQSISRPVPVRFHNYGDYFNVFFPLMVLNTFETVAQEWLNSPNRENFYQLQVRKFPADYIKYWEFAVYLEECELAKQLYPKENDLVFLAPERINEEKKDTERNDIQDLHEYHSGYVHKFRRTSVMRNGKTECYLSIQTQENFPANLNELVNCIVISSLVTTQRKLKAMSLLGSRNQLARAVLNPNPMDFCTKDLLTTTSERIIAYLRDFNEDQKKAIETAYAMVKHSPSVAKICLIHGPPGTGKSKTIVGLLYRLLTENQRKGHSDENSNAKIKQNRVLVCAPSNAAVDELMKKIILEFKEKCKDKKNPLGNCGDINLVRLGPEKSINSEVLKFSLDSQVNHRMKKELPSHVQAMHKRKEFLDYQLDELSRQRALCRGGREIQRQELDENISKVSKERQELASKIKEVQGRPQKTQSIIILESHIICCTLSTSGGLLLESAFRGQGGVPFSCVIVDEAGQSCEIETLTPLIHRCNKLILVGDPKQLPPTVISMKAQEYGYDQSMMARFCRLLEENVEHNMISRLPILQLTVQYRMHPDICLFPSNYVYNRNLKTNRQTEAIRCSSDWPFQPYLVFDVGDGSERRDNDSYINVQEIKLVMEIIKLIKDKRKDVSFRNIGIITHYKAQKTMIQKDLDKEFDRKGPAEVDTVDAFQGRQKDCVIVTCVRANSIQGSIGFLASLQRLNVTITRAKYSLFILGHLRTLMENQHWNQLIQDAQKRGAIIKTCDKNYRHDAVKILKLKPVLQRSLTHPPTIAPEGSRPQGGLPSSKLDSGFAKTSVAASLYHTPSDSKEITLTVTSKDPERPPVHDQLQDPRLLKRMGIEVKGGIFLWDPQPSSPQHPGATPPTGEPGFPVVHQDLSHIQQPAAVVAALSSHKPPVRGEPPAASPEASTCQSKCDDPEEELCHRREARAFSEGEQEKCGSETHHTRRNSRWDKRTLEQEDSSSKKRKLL"}, "source": "paper PMC6030175", "about": "“A senataxin-associated exonuclease SAN1 is required for resistance to DNA interstrand cross-links”", "molecules": {"B1": {"name": "mSETX (876-1103), prey fragment from the mouse adult brain library (domain or fragment, UniProt A2AKX3 876-1103)", "chain": "DKLQIQEGRADDDLVSFTEVTDTLVKAPCEGHVKMVVESRDKEMRESTALTSNLVEGQVPHDSSKPLVAGRQIDLCNITLISQTTVIQFPSGLSKQNSFQLQKGDKRCLTANQNSAATCRGQVIVISDSDEEEDEDEDERSSSEENIKQSKACIGKDCSEHRSLAVNASVEKQLVKEEERYPVEFEDSESQVFEFESSSEVFSVWQDHKIDSKNSLQGEQKSYVTHVA"}, "B2": {"name": "Myc-mSETX fragment (myc-SETX-SID fragment) (domain or fragment, UniProt A2AKX3 876-1103)", "chain": "DKLQIQEGRADDDLVSFTEVTDTLVKAPCEGHVKMVVESRDKEMRESTALTSNLVEGQVPHDSSKPLVAGRQIDLCNITLISQTTVIQFPSGLSKQNSFQLQKGDKRCLTANQNSAATCRGQVIVISDSDEEEDEDEDERSSSEENIKQSKACIGKDCSEHRSLAVNASVEKQLVKEEERYPVEFEDSESQVFEFESSSEVFSVWQDHKIDSKNSLQGEQKSYVTHVA"}}, "key": {"[1]": {"target": "T1, SAN1WT-Strep2-FLAG (human SAN1-ssf) (human) (UniProt Q96EK7)", "T1 sequence": "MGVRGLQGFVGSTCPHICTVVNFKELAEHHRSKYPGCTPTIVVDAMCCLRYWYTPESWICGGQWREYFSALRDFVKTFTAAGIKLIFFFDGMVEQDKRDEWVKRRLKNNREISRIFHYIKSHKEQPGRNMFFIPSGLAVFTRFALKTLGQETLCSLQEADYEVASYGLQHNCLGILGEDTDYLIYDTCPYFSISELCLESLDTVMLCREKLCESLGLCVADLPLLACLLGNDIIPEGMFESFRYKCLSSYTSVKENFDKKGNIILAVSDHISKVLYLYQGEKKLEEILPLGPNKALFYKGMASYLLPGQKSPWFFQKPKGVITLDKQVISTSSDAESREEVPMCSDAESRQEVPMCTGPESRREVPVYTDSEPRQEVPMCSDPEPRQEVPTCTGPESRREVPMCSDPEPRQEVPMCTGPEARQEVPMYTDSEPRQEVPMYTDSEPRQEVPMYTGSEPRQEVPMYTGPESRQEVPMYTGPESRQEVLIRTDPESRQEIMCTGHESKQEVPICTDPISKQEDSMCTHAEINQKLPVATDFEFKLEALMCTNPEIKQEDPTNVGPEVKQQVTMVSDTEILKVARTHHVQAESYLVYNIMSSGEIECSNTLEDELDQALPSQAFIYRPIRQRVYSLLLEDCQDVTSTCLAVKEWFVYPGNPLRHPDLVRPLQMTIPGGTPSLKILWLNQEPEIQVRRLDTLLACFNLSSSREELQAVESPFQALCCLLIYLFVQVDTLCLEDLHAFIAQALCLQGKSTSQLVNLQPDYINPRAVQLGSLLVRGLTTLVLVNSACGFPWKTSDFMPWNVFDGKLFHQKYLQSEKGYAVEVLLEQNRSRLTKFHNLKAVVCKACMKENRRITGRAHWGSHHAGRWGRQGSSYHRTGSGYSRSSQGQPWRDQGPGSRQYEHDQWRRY", "test": "co-IP; soluble nuclear fraction of HeLa SETX-FLAG-GFP cells expressing SAN1-ssf or SAN1ΔRep-ssf, +/- 1 μM MMC; SAN1 captured on Strep-Tactin beads, eluted with desthiobiotin; immunoblot"}, "[2]": {"target": "T2, endogenous SAN1 (HeLa) (human (endogenous in HeLa)) (UniProt Q96EK7)", "T2 sequence": "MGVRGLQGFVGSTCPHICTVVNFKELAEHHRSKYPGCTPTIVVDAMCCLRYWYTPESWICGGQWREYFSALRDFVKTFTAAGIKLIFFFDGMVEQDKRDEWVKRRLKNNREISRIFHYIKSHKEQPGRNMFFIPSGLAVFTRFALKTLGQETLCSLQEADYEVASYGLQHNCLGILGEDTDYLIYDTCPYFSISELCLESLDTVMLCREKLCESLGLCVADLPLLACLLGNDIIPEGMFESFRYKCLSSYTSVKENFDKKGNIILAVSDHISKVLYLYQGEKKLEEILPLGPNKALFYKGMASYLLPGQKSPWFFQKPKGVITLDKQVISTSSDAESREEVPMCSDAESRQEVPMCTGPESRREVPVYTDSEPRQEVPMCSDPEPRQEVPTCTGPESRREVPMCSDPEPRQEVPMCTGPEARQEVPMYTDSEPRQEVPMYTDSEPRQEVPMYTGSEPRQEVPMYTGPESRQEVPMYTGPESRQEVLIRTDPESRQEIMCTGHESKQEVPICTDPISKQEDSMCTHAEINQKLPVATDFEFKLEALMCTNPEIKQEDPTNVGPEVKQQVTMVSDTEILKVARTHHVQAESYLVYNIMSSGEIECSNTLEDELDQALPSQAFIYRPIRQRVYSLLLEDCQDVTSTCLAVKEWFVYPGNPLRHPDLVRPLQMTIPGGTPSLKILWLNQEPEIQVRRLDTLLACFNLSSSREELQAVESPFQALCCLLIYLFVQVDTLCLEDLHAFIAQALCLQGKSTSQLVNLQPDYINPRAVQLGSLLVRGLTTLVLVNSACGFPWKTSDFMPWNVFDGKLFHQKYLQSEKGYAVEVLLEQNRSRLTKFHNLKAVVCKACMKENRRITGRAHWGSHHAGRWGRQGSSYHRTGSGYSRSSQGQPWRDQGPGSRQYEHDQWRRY", "test": "co-IP; HeLa soluble nuclear fraction after 1 μM MMC; endogenous SAN1 precipitated with anti-FAM120b antibody and protein A/G Sepharose; immunoblot for SETX"}, "[3]": {"target": "T3, full length murine SAN1 (yeast two-hybrid bait) (mouse) (UniProt Q6RI63)", "T3 sequence": "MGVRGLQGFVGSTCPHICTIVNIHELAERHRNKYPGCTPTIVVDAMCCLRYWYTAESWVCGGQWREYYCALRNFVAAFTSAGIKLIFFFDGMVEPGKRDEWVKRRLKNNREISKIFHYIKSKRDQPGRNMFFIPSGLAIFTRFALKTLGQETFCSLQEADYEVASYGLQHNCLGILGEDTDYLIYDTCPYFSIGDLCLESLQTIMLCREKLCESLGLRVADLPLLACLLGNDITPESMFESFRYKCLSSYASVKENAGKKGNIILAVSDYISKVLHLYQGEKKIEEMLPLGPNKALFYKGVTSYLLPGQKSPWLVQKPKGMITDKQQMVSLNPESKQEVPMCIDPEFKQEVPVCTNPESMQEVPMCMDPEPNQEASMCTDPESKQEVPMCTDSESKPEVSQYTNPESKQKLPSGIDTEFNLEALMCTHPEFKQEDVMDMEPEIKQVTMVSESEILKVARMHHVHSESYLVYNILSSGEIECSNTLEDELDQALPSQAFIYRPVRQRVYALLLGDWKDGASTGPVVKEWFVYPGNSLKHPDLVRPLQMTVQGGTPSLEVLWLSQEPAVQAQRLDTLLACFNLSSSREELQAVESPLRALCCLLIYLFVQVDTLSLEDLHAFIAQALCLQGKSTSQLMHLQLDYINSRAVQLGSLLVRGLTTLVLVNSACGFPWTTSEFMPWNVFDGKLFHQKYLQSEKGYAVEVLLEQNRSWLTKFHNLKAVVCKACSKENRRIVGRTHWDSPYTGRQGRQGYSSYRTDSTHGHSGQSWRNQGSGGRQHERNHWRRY", "test": "two-hybrid; Hybrigenics genome-wide screen; full length murine SAN1 as bait against a mouse adult brain library"}, "[4]": {"target": "T4, SAN1-FLAG (human SAN1 in pRK7 with a C-terminal FLAG tag) (human) (UniProt Q96EK7)", "T4 sequence": "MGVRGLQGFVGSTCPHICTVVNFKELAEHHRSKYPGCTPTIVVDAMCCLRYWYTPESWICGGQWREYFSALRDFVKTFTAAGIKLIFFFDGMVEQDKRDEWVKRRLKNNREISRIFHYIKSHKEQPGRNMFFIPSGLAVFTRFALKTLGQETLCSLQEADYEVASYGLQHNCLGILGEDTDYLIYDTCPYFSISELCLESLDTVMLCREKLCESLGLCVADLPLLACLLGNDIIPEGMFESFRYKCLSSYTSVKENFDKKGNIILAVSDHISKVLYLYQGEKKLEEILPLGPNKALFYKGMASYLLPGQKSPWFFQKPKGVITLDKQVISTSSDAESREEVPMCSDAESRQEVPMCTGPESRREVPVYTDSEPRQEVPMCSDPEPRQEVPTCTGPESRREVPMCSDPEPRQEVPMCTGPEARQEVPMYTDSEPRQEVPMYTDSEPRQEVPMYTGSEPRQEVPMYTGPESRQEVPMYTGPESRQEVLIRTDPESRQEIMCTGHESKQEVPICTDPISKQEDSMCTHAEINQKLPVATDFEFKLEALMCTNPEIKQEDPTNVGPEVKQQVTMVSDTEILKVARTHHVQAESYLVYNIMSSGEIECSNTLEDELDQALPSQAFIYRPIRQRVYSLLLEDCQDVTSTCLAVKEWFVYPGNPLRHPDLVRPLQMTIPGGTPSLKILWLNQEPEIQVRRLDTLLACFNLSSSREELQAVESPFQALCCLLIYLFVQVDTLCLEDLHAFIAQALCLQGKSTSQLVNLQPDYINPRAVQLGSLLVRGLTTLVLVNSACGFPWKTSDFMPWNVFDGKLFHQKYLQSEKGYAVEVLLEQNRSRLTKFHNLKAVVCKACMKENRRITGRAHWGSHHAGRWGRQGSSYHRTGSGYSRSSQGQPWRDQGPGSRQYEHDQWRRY", "test": "co-IP; 293T cells co-transfected; lysis in 25 mM HEPES pH 7.4, 150 mM NaCl, 0.5% Triton-X 100; anti-FLAG M2 agarose 1 h at 4 °C; immunoblot for FLAG and Myc"}}, "note": "These are yes or no findings as the source states them, for the method shown. For some of these results: In cells and extracts the contact can be indirect. Some binding calls cover weakened binding; strength is not graded here. For some of these results: Where a sequence is shown, tags or fusion partners need not be part of it.", "data": [{"molecule": "Senataxin-FLAG-GFP (full length SETX-Flag-GFP) (from UniProt Q7Z333 1-2677)", "values": [{"measurement": "binding", "setting": "[1]", "result": "binds"}]}, {"molecule": "endogenous Senataxin (HeLa) (from UniProt Q7Z333 1-2677)", "values": [{"measurement": "binding", "setting": "[2]", "result": "binds"}]}, {"molecule": "B1", "values": [{"measurement": "binding", "setting": "[3]", "result": "binds"}]}, {"molecule": "B2", "values": [{"measurement": "binding", "setting": "[4]", "result": "binds"}]}]}
